Experimental data taken from article PMC4747173.
Where two headings read alike, the source gives them in different places. Results are given in words; binding and its absence hold for the method and conditions named. In cells and extracts the contact can be indirect. These calls come from enrichment with a bait or labelling near it, and not all partners need be listed. For some of these results: No binding means not detected with the bait. For some of these results: Where a sequence is shown, tags or fusion partners need not be part of it.

The chains behind the UniProt entries cited, without tags or fusion partners.
UniProt O14777: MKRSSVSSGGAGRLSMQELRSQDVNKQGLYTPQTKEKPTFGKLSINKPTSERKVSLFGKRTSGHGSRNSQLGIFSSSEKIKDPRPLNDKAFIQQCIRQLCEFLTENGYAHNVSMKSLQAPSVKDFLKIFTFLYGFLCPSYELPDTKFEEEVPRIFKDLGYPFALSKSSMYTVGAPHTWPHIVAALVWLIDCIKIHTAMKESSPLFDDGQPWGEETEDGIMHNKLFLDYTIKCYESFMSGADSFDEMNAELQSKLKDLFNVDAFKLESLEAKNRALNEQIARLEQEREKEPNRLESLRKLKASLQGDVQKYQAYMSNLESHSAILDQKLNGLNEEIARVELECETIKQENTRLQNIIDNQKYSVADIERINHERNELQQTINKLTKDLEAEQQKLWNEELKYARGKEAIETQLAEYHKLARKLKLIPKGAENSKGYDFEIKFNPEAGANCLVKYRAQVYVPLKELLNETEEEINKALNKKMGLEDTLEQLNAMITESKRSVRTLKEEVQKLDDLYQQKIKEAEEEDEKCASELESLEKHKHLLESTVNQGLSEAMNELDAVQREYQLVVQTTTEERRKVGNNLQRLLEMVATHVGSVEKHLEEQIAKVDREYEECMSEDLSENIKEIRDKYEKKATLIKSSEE
UniProt P62140: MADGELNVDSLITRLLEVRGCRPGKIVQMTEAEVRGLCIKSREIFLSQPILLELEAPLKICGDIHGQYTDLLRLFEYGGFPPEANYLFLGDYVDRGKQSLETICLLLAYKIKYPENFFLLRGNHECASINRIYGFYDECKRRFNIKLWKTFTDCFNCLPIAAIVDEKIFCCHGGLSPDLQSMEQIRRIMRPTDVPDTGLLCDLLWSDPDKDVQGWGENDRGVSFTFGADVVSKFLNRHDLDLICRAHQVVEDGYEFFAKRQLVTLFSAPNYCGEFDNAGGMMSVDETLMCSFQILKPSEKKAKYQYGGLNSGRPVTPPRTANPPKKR
UniProt P36873: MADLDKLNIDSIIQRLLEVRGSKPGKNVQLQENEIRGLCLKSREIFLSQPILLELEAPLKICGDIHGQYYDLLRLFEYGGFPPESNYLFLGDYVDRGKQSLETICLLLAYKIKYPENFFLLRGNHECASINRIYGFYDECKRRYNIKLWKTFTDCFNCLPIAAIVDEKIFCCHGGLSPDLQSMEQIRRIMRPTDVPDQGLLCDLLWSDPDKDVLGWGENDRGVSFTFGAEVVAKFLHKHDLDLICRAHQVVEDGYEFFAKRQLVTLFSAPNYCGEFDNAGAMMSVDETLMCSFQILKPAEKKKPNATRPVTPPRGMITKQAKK
UniProt Q9BV73: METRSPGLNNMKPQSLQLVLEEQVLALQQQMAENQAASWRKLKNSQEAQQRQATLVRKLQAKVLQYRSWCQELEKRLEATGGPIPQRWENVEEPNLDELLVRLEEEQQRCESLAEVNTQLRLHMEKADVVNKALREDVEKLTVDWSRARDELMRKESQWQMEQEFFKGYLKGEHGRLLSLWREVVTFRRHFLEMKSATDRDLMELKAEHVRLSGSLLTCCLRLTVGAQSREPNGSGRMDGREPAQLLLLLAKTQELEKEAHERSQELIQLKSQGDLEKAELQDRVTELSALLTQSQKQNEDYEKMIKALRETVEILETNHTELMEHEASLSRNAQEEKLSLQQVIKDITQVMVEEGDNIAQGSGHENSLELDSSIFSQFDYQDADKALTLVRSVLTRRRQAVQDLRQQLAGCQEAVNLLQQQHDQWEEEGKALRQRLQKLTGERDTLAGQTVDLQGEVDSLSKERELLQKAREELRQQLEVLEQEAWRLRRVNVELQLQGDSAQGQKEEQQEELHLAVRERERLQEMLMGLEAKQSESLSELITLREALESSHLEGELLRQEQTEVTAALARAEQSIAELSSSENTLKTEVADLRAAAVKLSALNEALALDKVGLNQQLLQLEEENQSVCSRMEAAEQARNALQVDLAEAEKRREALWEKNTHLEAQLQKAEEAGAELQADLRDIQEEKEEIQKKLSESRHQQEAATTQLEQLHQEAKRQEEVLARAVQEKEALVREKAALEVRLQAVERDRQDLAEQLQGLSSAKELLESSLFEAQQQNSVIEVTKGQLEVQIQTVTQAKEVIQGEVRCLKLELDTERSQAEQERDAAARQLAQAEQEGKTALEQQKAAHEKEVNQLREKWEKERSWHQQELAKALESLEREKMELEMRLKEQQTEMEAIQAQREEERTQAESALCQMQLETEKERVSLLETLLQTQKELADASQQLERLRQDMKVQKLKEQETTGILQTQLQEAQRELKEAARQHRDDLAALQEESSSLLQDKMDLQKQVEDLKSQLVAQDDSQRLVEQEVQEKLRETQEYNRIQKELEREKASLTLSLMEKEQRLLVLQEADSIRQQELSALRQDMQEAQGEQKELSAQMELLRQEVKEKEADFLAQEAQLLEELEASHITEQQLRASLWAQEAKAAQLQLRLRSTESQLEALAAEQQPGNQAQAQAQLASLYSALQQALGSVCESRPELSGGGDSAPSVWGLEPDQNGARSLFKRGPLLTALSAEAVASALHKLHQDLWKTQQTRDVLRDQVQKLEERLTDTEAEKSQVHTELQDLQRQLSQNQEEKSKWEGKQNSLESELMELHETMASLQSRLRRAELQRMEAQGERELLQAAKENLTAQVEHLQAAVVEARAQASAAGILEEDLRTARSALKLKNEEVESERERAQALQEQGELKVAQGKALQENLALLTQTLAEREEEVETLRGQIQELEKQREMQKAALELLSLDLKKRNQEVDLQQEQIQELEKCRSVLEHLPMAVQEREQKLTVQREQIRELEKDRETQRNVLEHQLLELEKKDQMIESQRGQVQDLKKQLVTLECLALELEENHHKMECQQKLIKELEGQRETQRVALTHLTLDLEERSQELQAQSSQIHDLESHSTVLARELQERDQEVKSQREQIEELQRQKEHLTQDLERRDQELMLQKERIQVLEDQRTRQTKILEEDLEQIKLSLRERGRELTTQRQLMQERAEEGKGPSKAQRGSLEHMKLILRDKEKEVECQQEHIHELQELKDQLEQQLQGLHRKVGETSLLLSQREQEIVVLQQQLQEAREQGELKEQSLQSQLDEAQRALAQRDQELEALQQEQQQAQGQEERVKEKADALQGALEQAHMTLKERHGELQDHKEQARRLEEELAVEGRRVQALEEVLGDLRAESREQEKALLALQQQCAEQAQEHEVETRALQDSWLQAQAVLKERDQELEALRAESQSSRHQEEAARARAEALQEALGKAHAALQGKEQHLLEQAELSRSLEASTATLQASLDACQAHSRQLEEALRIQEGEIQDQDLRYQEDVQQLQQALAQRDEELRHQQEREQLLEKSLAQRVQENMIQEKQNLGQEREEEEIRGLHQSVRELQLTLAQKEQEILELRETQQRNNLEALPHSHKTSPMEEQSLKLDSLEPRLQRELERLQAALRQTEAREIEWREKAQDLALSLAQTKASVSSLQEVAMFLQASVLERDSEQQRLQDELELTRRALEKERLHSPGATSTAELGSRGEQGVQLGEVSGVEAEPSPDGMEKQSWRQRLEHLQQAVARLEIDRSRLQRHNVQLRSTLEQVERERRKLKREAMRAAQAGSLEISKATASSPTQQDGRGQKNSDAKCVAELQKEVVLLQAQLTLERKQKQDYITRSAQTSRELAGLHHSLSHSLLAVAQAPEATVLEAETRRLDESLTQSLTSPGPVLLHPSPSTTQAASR
UniProt P62136: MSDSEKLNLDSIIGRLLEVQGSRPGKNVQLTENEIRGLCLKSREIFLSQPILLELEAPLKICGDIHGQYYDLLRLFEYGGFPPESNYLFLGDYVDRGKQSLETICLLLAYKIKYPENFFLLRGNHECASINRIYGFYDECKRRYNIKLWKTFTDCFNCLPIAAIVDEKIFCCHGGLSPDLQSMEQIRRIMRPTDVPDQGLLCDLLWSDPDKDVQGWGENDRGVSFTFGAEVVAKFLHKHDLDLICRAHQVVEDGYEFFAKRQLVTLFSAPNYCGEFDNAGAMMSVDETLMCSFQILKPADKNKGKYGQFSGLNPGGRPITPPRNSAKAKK
UniProt Q03135: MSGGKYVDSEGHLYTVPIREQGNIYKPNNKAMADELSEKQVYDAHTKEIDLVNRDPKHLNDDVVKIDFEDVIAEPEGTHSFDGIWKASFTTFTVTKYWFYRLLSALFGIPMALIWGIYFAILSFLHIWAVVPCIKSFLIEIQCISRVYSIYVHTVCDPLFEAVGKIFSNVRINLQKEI
UniProt Q8NBT2: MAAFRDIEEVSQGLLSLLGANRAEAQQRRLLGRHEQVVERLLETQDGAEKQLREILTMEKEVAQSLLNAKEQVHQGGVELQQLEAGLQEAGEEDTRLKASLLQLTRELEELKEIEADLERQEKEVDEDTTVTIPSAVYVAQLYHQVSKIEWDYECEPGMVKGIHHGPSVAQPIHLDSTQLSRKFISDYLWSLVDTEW
UniProt Q15154: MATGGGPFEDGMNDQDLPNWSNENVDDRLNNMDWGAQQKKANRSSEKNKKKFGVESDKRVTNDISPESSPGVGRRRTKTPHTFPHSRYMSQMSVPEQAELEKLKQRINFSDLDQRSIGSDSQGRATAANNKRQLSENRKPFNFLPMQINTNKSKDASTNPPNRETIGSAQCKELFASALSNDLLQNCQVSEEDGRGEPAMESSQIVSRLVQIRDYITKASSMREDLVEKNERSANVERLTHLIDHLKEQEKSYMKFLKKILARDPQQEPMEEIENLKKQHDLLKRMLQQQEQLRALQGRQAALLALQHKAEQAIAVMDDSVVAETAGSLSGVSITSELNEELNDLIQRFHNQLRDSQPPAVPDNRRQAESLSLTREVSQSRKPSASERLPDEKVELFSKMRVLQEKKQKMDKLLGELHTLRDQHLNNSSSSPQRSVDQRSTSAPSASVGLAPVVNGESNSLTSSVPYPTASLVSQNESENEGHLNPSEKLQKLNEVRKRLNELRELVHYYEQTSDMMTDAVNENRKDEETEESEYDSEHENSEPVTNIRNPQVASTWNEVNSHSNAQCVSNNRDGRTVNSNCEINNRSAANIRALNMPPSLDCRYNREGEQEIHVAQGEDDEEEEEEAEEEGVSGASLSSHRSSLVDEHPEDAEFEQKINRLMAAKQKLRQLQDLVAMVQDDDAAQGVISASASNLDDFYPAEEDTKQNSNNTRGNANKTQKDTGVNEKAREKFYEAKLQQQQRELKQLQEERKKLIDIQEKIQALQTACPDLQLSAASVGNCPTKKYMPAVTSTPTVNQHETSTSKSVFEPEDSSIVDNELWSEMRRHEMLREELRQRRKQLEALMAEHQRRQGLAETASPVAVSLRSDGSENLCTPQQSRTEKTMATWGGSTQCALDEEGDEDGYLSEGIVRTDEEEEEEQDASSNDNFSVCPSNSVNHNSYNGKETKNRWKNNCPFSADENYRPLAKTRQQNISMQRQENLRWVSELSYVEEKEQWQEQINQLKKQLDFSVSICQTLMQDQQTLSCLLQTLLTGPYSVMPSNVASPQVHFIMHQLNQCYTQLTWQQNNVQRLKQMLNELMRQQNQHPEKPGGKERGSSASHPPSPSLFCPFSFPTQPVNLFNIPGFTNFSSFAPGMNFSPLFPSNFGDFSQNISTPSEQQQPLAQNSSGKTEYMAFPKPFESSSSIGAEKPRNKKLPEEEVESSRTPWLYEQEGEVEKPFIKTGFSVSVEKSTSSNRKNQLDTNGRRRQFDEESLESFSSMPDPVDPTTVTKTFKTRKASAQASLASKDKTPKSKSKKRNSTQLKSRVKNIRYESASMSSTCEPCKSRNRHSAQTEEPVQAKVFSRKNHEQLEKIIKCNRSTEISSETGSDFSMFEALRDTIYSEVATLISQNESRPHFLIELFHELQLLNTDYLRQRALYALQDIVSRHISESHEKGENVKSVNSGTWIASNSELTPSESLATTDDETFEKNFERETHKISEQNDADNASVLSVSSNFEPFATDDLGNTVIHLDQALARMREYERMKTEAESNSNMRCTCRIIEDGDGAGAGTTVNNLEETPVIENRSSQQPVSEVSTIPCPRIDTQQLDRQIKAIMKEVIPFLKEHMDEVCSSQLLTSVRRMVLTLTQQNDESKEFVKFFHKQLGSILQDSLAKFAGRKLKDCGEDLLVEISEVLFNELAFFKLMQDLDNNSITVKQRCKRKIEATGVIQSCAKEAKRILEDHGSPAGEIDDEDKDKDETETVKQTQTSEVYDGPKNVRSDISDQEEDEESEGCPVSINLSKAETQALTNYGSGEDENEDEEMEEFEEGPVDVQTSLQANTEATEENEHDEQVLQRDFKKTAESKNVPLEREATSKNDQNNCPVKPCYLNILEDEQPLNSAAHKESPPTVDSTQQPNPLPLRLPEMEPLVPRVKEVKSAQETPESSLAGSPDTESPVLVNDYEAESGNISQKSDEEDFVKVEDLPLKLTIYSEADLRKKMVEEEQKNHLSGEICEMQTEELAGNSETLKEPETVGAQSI

T1: FLAG-HA-ASPP1 (stably expressed in HeLa cells) (UniProt Q96KQ4)
T1 sequence: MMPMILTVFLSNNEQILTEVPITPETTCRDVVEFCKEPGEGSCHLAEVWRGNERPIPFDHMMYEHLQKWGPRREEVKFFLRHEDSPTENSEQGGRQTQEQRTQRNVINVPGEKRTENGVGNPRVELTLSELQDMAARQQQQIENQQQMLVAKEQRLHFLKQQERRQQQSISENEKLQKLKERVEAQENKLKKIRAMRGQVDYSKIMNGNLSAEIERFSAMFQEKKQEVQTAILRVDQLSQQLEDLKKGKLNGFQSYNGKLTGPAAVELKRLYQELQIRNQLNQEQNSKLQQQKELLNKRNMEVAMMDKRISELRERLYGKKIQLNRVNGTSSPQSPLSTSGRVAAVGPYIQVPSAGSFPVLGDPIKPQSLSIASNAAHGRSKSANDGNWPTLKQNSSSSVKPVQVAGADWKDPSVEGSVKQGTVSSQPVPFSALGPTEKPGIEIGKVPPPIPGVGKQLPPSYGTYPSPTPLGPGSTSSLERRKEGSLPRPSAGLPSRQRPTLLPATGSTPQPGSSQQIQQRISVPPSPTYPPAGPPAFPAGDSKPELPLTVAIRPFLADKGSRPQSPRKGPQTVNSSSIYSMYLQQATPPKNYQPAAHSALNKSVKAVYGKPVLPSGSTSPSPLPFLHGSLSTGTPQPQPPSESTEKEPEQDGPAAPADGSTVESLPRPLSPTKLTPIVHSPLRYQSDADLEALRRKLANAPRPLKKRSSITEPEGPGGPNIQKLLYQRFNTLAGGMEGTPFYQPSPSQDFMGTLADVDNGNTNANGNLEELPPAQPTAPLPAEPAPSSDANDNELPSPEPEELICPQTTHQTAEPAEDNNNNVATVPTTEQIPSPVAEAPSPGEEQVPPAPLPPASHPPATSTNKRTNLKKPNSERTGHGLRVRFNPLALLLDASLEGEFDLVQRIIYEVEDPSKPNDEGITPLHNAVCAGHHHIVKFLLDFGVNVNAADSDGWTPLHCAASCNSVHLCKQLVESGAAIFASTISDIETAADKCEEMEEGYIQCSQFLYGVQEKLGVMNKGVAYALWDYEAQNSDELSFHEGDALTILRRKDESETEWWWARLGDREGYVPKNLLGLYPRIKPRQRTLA

T2: FLAG-HA-ASPP2 (stably expressed in HeLa cells) (UniProt Q13625)
T2 sequence: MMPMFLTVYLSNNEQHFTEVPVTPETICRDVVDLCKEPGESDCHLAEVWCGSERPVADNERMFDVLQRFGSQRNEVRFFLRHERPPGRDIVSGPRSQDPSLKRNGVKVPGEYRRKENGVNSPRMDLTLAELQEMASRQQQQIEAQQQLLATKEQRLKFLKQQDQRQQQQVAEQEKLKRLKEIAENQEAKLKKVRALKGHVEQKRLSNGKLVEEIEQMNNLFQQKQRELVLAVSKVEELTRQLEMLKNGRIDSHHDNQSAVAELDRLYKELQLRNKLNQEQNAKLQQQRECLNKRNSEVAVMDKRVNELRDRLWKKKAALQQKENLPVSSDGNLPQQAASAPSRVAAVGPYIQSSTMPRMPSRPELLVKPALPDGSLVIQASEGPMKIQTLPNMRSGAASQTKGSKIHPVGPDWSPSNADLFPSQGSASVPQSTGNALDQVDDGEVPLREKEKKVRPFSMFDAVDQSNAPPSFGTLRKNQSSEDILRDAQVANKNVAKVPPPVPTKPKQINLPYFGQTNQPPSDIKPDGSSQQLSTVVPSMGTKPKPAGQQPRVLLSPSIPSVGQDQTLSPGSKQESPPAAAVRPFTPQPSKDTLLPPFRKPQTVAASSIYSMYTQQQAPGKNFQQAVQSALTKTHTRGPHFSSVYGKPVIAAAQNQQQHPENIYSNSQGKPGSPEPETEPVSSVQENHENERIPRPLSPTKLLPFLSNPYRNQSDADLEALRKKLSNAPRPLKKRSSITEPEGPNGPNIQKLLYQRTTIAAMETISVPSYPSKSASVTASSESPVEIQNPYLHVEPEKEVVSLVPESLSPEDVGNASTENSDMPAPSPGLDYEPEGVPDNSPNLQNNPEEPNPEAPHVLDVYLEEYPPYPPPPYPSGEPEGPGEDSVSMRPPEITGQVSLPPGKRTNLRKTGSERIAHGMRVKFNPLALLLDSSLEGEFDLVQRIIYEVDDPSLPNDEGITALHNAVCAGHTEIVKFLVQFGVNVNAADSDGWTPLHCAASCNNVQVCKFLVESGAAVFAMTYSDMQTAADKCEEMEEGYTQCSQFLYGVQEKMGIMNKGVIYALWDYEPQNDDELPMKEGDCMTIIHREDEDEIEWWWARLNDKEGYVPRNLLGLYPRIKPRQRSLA

B1: ASPP1 (endogenous) (protein, UniProt Q96KQ4 1-1090)
chain: MMPMILTVFLSNNEQILTEVPITPETTCRDVVEFCKEPGEGSCHLAEVWRGNERPIPFDHMMYEHLQKWGPRREEVKFFLRHEDSPTENSEQGGRQTQEQRTQRNVINVPGEKRTENGVGNPRVELTLSELQDMAARQQQQIENQQQMLVAKEQRLHFLKQQERRQQQSISENEKLQKLKERVEAQENKLKKIRAMRGQVDYSKIMNGNLSAEIERFSAMFQEKKQEVQTAILRVDQLSQQLEDLKKGKLNGFQSYNGKLTGPAAVELKRLYQELQIRNQLNQEQNSKLQQQKELLNKRNMEVAMMDKRISELRERLYGKKIQLNRVNGTSSPQSPLSTSGRVAAVGPYIQVPSAGSFPVLGDPIKPQSLSIASNAAHGRSKSANDGNWPTLKQNSSSSVKPVQVAGADWKDPSVEGSVKQGTVSSQPVPFSALGPTEKPGIEIGKVPPPIPGVGKQLPPSYGTYPSPTPLGPGSTSSLERRKEGSLPRPSAGLPSRQRPTLLPATGSTPQPGSSQQIQQRISVPPSPTYPPAGPPAFPAGDSKPELPLTVAIRPFLADKGSRPQSPRKGPQTVNSSSIYSMYLQQATPPKNYQPAAHSALNKSVKAVYGKPVLPSGSTSPSPLPFLHGSLSTGTPQPQPPSESTEKEPEQDGPAAPADGSTVESLPRPLSPTKLTPIVHSPLRYQSDADLEALRRKLANAPRPLKKRSSITEPEGPGGPNIQKLLYQRFNTLAGGMEGTPFYQPSPSQDFMGTLADVDNGNTNANGNLEELPPAQPTAPLPAEPAPSSDANDNELPSPEPEELICPQTTHQTAEPAEDNNNNVATVPTTEQIPSPVAEAPSPGEEQVPPAPLPPASHPPATSTNKRTNLKKPNSERTGHGLRVRFNPLALLLDASLEGEFDLVQRIIYEVEDPSKPNDEGITPLHNAVCAGHHHIVKFLLDFGVNVNAADSDGWTPLHCAASCNSVHLCKQLVESGAAIFASTISDIETAADKCEEMEEGYIQCSQFLYGVQEKLGVMNKGVAYALWDYEAQNSDELSFHEGDALTILRRKDESETEWWWARLGDREGYVPKNLLGLYPRIKPRQRTLA
B2: ASPP2 (endogenous) (protein, UniProt Q13625 1-1128)
chain: MMPMFLTVYLSNNEQHFTEVPVTPETICRDVVDLCKEPGESDCHLAEVWCGSERPVADNERMFDVLQRFGSQRNEVRFFLRHERPPGRDIVSGPRSQDPSLKRNGVKVPGEYRRKENGVNSPRMDLTLAELQEMASRQQQQIEAQQQLLATKEQRLKFLKQQDQRQQQQVAEQEKLKRLKEIAENQEAKLKKVRALKGHVEQKRLSNGKLVEEIEQMNNLFQQKQRELVLAVSKVEELTRQLEMLKNGRIDSHHDNQSAVAELDRLYKELQLRNKLNQEQNAKLQQQRECLNKRNSEVAVMDKRVNELRDRLWKKKAALQQKENLPVSSDGNLPQQAASAPSRVAAVGPYIQSSTMPRMPSRPELLVKPALPDGSLVIQASEGPMKIQTLPNMRSGAASQTKGSKIHPVGPDWSPSNADLFPSQGSASVPQSTGNALDQVDDGEVPLREKEKKVRPFSMFDAVDQSNAPPSFGTLRKNQSSEDILRDAQVANKNVAKVPPPVPTKPKQINLPYFGQTNQPPSDIKPDGSSQQLSTVVPSMGTKPKPAGQQPRVLLSPSIPSVGQDQTLSPGSKQESPPAAAVRPFTPQPSKDTLLPPFRKPQTVAASSIYSMYTQQQAPGKNFQQAVQSALTKTHTRGPHFSSVYGKPVIAAAQNQQQHPENIYSNSQGKPGSPEPETEPVSSVQENHENERIPRPLSPTKLLPFLSNPYRNQSDADLEALRKKLSNAPRPLKKRSSITEPEGPNGPNIQKLLYQRTTIAAMETISVPSYPSKSASVTASSESPVEIQNPYLHVEPEKEVVSLVPESLSPEDVGNASTENSDMPAPSPGLDYEPEGVPDNSPNLQNNPEEPNPEAPHVLDVYLEEYPPYPPPPYPSGEPEGPGEDSVSMRPPEITGQVSLPPGKRTNLRKTGSERIAHGMRVKFNPLALLLDSSLEGEFDLVQRIIYEVDDPSLPNDEGITALHNAVCAGHTEIVKFLVQFGVNVNAADSDGWTPLHCAASCNNVQVCKFLVESGAAVFAMTYSDMQTAADKCEEMEEGYTQCSQFLYGVQEKMGIMNKGVIYALWDYEPQNDDELPMKEGDCMTIIHREDEDEIEWWWARLNDKEGYVPRNLLGLYPRIKPRQRSLA

Columns and labels:
[1] = target: T1, FLAG-HA-ASPP1 (stably expressed in HeLa cells); experiment: affinity purification with mass spectrometry; tandem affinity purification (anti-FLAG M2 agarose, FLAG peptide elution, then anti-HA agarose, HA peptide elution) from HeLa cells stably expressing FH-ASPP1 or FH-ASPP2; lysis in BC100 buffer (20 mM Tris-Cl pH 7.9, 100 mM NaCl, 0.2 mM EDTA, 20% glycerol) with 0.2% Triton X-100; proteins found in MOCK HeLa cells omitted
[2] = target: T2, FLAG-HA-ASPP2 (stably expressed in HeLa cells); experiment: as above
[3] = target: FLAG-HA-Hec1 (stably expressed in HeLa cells) (UniProt O14777); experiment: affinity purification with mass spectrometry; tandem affinity purification of the Hec1-containing complex from HeLa cells stably expressing FLAG-HA (FH)-Hec1; SDS-PAGE, mass spectrometry
[4] = target: FLAG-HA-Hec1 (stably expressed in HeLa cells) (UniProt O14777); experiment: as above; remark: listed apart in the source

Row | Molecule | binding [1] | binding [2] | binding [3] | binding [4]
1 | KNL-1 (endogenous) (from UniProt Q8NG31 1-2342) | binds | binds | – | –
2 | PP1β catalytic subunit (endogenous) (from UniProt P62140 1-327) (enzyme) | binds | binds | no binding | –
3 | PP1γ catalytic subunit (endogenous) (from UniProt P36873 1-323) (enzyme) | binds | binds | no binding | –
4 | INDAL (endogenous) (from UniProt Q8NI35 1-1801) | – | binds | – | –
5 | RASSF9 (endogenous) (from UniProt O75901 1-435) | binds | binds | – | –
6 | C-Nap1 (endogenous) (from UniProt Q9BV73 1-2442) | binds | binds | – | –
7 | PP1α catalytic subunit (endogenous) (from UniProt P62136 1-330) (enzyme) | binds | – | binds | –
8 | CENP-F (endogenous) (from UniProt P49454 1-3114) | binds | binds | – | –
9 | CAV1 (endogenous) (from UniProt Q03135 1-178) | binds | binds | – | –
10 | Nuf2 (endogenous) (from UniProt Q9BZD4 1-464) | binds | binds | – | –
11 | Spc24 (endogenous) (from UniProt Q8NBT2 1-197) | binds | binds | – | –
12 | Par-3 (endogenous) (from UniProt Q8TEW0 1-1356) | – | binds | – | –
13 | Hec1 (endogenous) (from UniProt O14777 1-642) | binds | binds | – | –
14 | PCM1 (endogenous) (from UniProt Q15154 1-2024) | binds | binds | – | –
15 | MAGI2 (endogenous) (from UniProt Q86UL8 1-1455) | – | binds | – | –
16 | TAZ (endogenous) (from UniProt Q9GZV5 1-400) | binds | binds | – | –
17 | PP2A regulatory subunit B55α (endogenous) (from UniProt P63151 1-447) | – | – | binds | –
18 | B1 | – | – | – | binds
19 | B2 | – | – | – | binds
